# Reference: PubChem BioAssay AID2685 (National Center for Advancing Translational Sciences (NCATS), 2010)
# The other results are listed elsewhere or left out. Further columns of the screen follow, without active or inactive calls. Compounds called inactive in the main read-out are mostly missing here. Words in brackets tell the shape of the fitted curve; partial curves, single points and poor fits give uncertain potencies.
# Experiment: qHTS Assay for Lipid Storage Modulators in Drosophila S3 Cells;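 as to cell number change: cells counted by Cell Tracker Red CMTPX staining in the red channel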
# Conditions: BODIPY lipid droplet fluorescence, 18-24 h; for cell number change: measured here: cell count max response, cells fed with added oleic acid
# In short: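 Laser-scanning cytometry quantifies lipid droplet accumulation (500–530 nm total intensity; droplet/cell object ratio) in oleic acid-fed (400 uM added) Drosophila S3 cells treated with a concentration series. 20 uM Triacsin C defined 100% inhibition.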
# [1] = measured here: cell number channel AC50, cells fed with added oleic acid
# [2] = measured here: lipid fluorescence (Fed channel) AC50, cells fed with added oleic acid
compound,measurement,setting,value
O=C(N/N=C(/CC(=O)c1cccs1)C(F)(F)F)c1ccc(O)cc1,cell number change,,48.3%
same,AC50,[1],"29100 nM [rising, single point]"
same,AC50,[2],"6510 nM [rising, single point]"
Cc1ccc(C)c(OCCC(=O)OCC(=O)NCCNC(=O)COC(=O)CCOc2cc(C)ccc2C)c1,cell number change,,-20.7%
same,AC50,[1],"920 nM [falling, full curve]"
same,AC50,[2],"1160 nM [falling, full curve]"
CCOC(=O)c1c(C)[nH]c(C)c1S(=O)(=O)NCC(=O)Nc1ccccn1,cell number change,,4.78%
same,AC50,[2],"1030 nM [falling, full curve, poor fit]"
O=C(Nc1cccc(S(=O)(=O)N2CCOCC2)c1)C1CCCCN1S(=O)(=O)c1ccccc1 (centres undefined),cell number change,,-36.4%
same,AC50,[1],"731 nM [falling, full curve, poor fit]"
COc1ccccc1-n1cnnc1SC1CCOC1=O (centres undefined),cell number change,,-11.7%
same,AC50,[2],"3660 nM [falling, single point]"
CN(C(=O)C1CCCO1)c1nnc(-c2ccccn2)s1 (centres undefined),cell number change,,9.93%
same,AC50,[2],"29100 nM [rising, single point]"
OCCSc1nc2ccccc2n1CCOc1ccccc1,cell number change,,-60.2%
same,AC50,[1],"29100 nM [falling, single point]"
COCCn1c(SCc2c(F)cccc2Cl)nc2c1c(=O)[nH]c(=O)n2C,AC50,[2],"116 nM [falling, full curve, poor fit]"
O=C(c1cc(S(=O)(=O)N2CCCCC2)ccc1N1CCOCC1)N1CCN(Cc2ccccc2)CC1,cell number change,,24.5%
same,AC50,[1],"4.61 nM [falling, full curve, poor fit]"
Cc1cccc(C2=NOC(=O)/C2=C\c2ccccc2F)c1,cell number change,,5.36%
same,AC50,[2],"6510 nM [rising, single point]"
Cc1cc(OCC(=O)Nc2ncn[nH]2)ccc1Cl,cell number change,,-36.6%
same,AC50,[1],"1460 nM [falling, partial curve]"
same,AC50,[2],"920 nM [falling, partial curve]"
CCN(CC)S(=O)(=O)c1ccc(OC)c(-n2cnnn2)c1,cell number change,,-7.67%
same,AC50,[2],"29100 nM [falling, single point]"
O=C(O)c1ccc(N=Cc2nc(-c3ccco3)oc2O)cc1,cell number change,,-5.32%
N#Cc1cnc(Nc2nc3ccccc3o2)nc1-c1ccccc1,cell number change,,3.75%
same,AC50,[2],"103 nM [falling, full curve, poor fit]"
CCCCn1c(=N)n(CC(O)COc2cccc(C)c2)c2ccccc21 (centres undefined),cell number change,,-70.7%
same,AC50,[2],"29100 nM [falling, single point]"
Cc1cc(N)n(-c2ccc(S(=O)(=O)c3ccc(C(C)C)cc3)cc2)n1,cell number change,,44.4%
same,AC50,[1],"25900 nM [rising, single point]"
CCS(=O)(=O)NCCc1csc(-c2ccccc2)n1,cell number change,,8.55%
same,AC50,[1],"3660 nM [rising, single point]"
same,AC50,[2],"2310 nM [rising, partial curve]"
CCOC(=O)Nc1ccc2c(c1)N(CCCN(C)C)c1ccccc1CC2,cell number change,,13.3%
same,AC50,[2],"29100 nM [rising, single point]"
CCOc1ccc(C(C(=O)NCC2CCCO2)N(Cc2cccc(OC)c2)C(=O)c2snc(C(N)=O)c2N)cc1 (centres undefined),cell number change,,8.12%
same,AC50,[2],"4.11 nM [rising, full curve, poor fit]"
CCn1c(CNC(=O)c2cccc(C)c2)nnc1SCC(=O)Nc1nnc(C)s1,cell number change,,8.7%
O=C(NCCN1CCOCC1)c1ccc(Cl)c(S(=O)(=O)N2CCCC2)c1,cell number change,,31.9%
O=C(NC1CCCCC1)c1cc(S(=O)(=O)N2CCCC2)ccc1Cl,cell number change,,12.8%
same,AC50,[2],"2310 nM [rising, single point]"
COc1cc(/C=N/Nc2ccc(C(F)(F)F)cn2)cc(OC)c1O,cell number change,,13.7%
same,AC50,[2],"18400 nM [rising, single point]"
CC1(C)Cc2c(sc3c2c(=N)n(Cc2ccco2)c(=O)n3CC(=O)Nc2ccccc2)CO1,cell number change,,18.7%
same,AC50,[1],"461 nM [rising, full curve]"
CCOC(=O)CN1N=C(/C=C/c2ccc(OC)cc2)CCC1=O,cell number change,,17.2%
CN1C(=O)C(O)(CC(=O)c2cccs2)c2ccccc21 (centres undefined),cell number change,,0.311%
same,AC50,[2],"82 nM [falling, full curve, poor fit]"
CC(=O)NC1C(=O)N=C(SCC(=O)NC2CCCCC2)NC1=O (centres undefined),cell number change,,-8.37%
same,AC50,[2],"23100 nM [falling, single point]"
COc1ccc(C(=O)C2CCCN(Cc3sc(N4CCCC4)nc3Cl)C2)c(OC)c1 (centres undefined),cell number change,,1.2%
O=[N+]([O-])c1ccc(Cl)c(NC2=NCCCCC2)c1,cell number change,,13.7%
same,AC50,[2],"184 nM [falling, full curve, poor fit]"
O=C(Nc1ccc(S(=O)(=O)N2CCCC2)cc1)c1c(F)cccc1F,AC50,[2],"164 nM [falling, full curve, poor fit]"
COc1ccc(Cn2c(CCC(=O)NCCC(C)C)nc3ncccc3c2=O)cc1,cell number change,,19.3%
same,AC50,[2],"3660 nM [rising, full curve, poor fit]"

# Some of the entries so far, with tabs.
compound	measurement	setting	value
O=C(N/N=C(/CC(=O)c1cccs1)C(F)(F)F)c1ccc(O)cc1	cell number change		48.3%
same	AC50	[1]	29100 nM [rising, single point]
